By UniProt entry, the sequences of proteins in these tests, tags left out. Where a name states a change or a piece, a line headed by the entry shows the natural chain unless it says otherwise.
UniProt Q7X2D3: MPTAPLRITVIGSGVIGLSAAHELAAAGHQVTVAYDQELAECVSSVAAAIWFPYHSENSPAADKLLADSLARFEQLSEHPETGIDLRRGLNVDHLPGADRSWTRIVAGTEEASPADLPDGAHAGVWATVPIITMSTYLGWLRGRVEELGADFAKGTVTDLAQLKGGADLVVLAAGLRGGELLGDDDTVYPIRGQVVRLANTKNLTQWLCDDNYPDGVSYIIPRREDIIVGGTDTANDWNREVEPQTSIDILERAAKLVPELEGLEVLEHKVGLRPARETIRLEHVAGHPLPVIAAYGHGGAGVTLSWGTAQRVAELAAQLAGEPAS

According to patent publication US7195900B2, “Cloning and expression of D-amino acid oxidase from arthrobacter protophormiae” (Degussa AG, priority 2002, dated 2007):

Target: T1, recombinant D-AAO (Glutamicibacter protophormiae, UniProt Q7X2D3)
T1 construct: The restriction sites NdeI and BamHI were attached to the dao gene by PCR; made in house; host or cells: E. coli BL21(DE3)
Test: Substrate specificity of the recombinant D-AAO (photometric peroxidase/o-dianisidine test)
Assay type: biochemical, Arthrobacter protophormiae
Settings: read-out: Relative activity
Method: To isolate D-AAO-forming microorganisms, soil samples were plated out on a nutrient medium in which coryneform bacteria can be concentrated: Na propionate 0.20 g; KNO3 0.01 g; KH2PO4 0.10 g; NaCl 0.25 g; MgSO4.7 H2O 0.10 g; CaCO3 0.02g; trace elements; vitamin solution; cycloheximide 0.05 g; if appropriate, agar 20.00 g; final pH 7.0. Microorganisms which grew on this medium were then transinoculated into a complex medium (DSM 65) with the following composition (per 1l): glucose 4.00 g; yeast extract 4.00 g; malt extract 10.00 g; agar 20 g; final pH 7.2. The strains were then multiplied in liquid medium (DSM 65), harvested by centrifugation, broken down, and the cell-free supernatant was obtained by centrifugation (=crude extract). This crude extract was then employed as an enzyme source for the photometric test for D-AAO activity. The test batch contained: 20 μl amino acid solution (100 mM); 80 μl TEA/o-dianisidine buffer; 10 μl peroxidase soln. (1,000 U/ml); 70 μl H2O; 20 μl crude extract. The measurement was carried out at 436 nm; 1 U corresponds to an amount of enzyme which converts 1 μmol of amino acid or 1 μmol of o-dianisidine per min (extinction coefficient ε for o-dianisidine=8.1 mM^−1 cm^−1).
A partial substrate spectrum was recorded for D-AAO (Table 2).
The stereoselectivity of the D-AAO was tested with the amino acids L-leucine, L-methionine and L-lysine. […]

NCCC[C@@H](N)C(=O)O [D-Ornithine]
activity at 10000 µM: 15%
